Data as given in publication PMC7819943, “Rice protein-binding microarrays: a tool to detect cis-acting elements near promoter regions in rice”.
The other results are listed elsewhere or left out.

Sequences of proteins named here, by UniProt entry; tags and fusion partners are left off.
UniProt Q0JBA9, entry or part of it: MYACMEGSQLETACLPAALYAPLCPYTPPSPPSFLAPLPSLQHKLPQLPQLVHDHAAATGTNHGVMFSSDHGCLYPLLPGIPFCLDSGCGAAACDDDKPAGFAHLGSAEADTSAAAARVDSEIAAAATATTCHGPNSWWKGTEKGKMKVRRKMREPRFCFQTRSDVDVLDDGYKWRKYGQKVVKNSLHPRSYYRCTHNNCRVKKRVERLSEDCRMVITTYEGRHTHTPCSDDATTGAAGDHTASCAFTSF

The sequences below were run against OsWRKY34 (Oryza sativa, UniProt Q0JBA9 1-250) (assay: protein-binding microarray (RPBM); PBS, 2% BSA, 51.3 ng/ul salmon testes DNA, 50 uM zinc acetate, 200 nM TF, 25 C, 1 h; high values mean tight binding). Details: protein: recombinant; tags: N-terminal polyhistidine and DsRed monomer fusion (pET32a); label: CyDye5-dUTP incorporated in the synthesized complementary strand; 3' TTTTT single-stranded linker to array surface; dsDNA, one strand shown.
In short: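 In PBS with 2% BSA, salmon testes DNA and 50 µM zinc acetate, 200 nM protein was incubated on a custom Agilent array at 25 °C for 1 h and then washed off. The array had been made double-stranded by primer extension with Cy5-dUTP and blocked with 2% BSA. The proteins were transcription factors fused N-terminally to polyhistidine and DsRed, expressed in E. coli BL21-CodonPlus and purified on Ni–NTA. The binding signal is per-feature fluorescence intensity (arbitrary units) from an Axon 4000B scanner.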
For “TTCATGCGCCTCAGCCATCCCTTTATTTAAATGTAGCACACGGAGTCACCTAGTGCAG”, the binding signal was 8240 fluorescence intensity (a.u.).
In the case of “CGAACGGTCGTCTGCCACGTCATTTTCGCCGCCCTCTGAGCGGAGTCACCTAGTGCAG”, the binding signal is reported as 10300 fluorescence intensity (a.u.).
“AGTCCACCATCAATTCCACTTCATCCTTTCGCCCTTTAATCGGAGTCACCTAGTGCAG” was tested, and the binding signal was 9420 fluorescence intensity (a.u.).
“TTGCAAAATTTAAAATTATGTTGTCATTGTAATATATTTTCGGAGTCACCTAGTGCAG” was tested, and the binding signal was 8440 fluorescence intensity (a.u.).
“GACGCCCCGCCCCGCGCCCCGCGCCTCGATCCTCGCCTCCCGGAGTCACCTAGTGCAG” was tested, and the binding signal was 10300 fluorescence intensity (a.u.).
For “GATAAGGAGACTAGTCACGCTCACGCTTGATTGTTCTATTCGGAGTCACCTAGTGCAG”, the binding signal was 11000 fluorescence intensity (a.u.).
“TCTGTCCTGATAGCTGCTCATGCTTAATGTTTCTTTCCTGCGGAGTCACCTAGTGCAG” was tested, and the binding signal was 9470 fluorescence intensity (a.u.).
For “TTTTTGGGCGTAATCCAGCGCGGCCGTCCGCCCGAGATCTCGGAGTCACCTAGTGCAG”, the binding signal was 8590 fluorescence intensity (a.u.).
For “GCCTCCGACCACCGCAGGGCTCCGTCCCGCCGCCTCCCAGCGGAGTCACCTAGTGCAG”, the binding signal was 8300 fluorescence intensity (a.u.).
In the case of “CTTAGTCCTCATTGCATACCATAGAACATTCCTAGATAGACGGAGTCACCTAGTGCAG”, the binding signal is reported as 9420 fluorescence intensity (a.u.).
With “TTCTGCTTCTTCAGCCGATGCACAGCCTCTGATCAGCTTCCGGAGTCACCTAGTGCAG” the binding signal was 9320 fluorescence intensity (a.u.).
With “GTGGTGTAGTGGGAGCGGCCGAGATGGGGCGTCGACGGGGCGGAGTCACCTAGTGCAG” the binding signal was 8770 fluorescence intensity (a.u.).
“TAACTCCCGCCGCTTTCTCATGCATGGTCGATCCCGCGTACGGAGTCACCTAGTGCAG” was tested, and the binding signal was 12400 fluorescence intensity (a.u.).
In the case of “TCATTGCTCTCTGTGTTTCTCCGCTATGCCGCCACGTCTTCGGAGTCACCTAGTGCAG”, the binding signal is reported as 16700 fluorescence intensity (a.u.).
For “GCTCCAAATTCACGCTACATTTCTTGGGCTTCATCTATATCGGAGTCACCTAGTGCAG”, the binding signal was 8800 fluorescence intensity (a.u.).
In the case of “GATGGCCCAAATATCATTTCACGAAGTTTTTTTTTTCTCTCGGAGTCACCTAGTGCAG”, the binding signal is reported as 8550 fluorescence intensity (a.u.).
For “TATATGATACTATCTCCGTTTCAATTATAAAACTTTTTATCGGAGTCACCTAGTGCAG”, the binding signal was 8140 fluorescence intensity (a.u.).
With “CAGTTTCCACCCTGGGTGGGGTGGGGCCCACCTGTCGGGGCGGAGTCACCTAGTGCAG” the binding signal was 9940 fluorescence intensity (a.u.).
“GTTCCGGAAAACCGCACATACTTGCACACAACCACGGATTCGGAGTCACCTAGTGCAG” was tested, and the binding signal was 8500 fluorescence intensity (a.u.).
With “TATTCTTGACTGTCTTTTTTTTTTCTCAACGTGCGCTTCACGGAGTCACCTAGTGCAG” the binding signal was 15400 fluorescence intensity (a.u.).
For “GTTTCTTAAGCATAACTTCTCCCTGGCAAATGTTCTTTCTCGGAGTCACCTAGTGCAG”, the binding signal was 9610 fluorescence intensity (a.u.).
For “AGGTTTGACTTTACTCTGCTTCAAAATGATAAGTATTACCCGGAGTCACCTAGTGCAG”, the binding signal was 10700 fluorescence intensity (a.u.).
For “TCATTCCATTTCCACCTGATTTCCTACCCGGGCTACCAAACGGAGTCACCTAGTGCAG”, the binding signal was 9820 fluorescence intensity (a.u.).
“GTGGCTCATATAGTCTGTGTTTCTCATATAAATCCCCATTCGGAGTCACCTAGTGCAG” was tested, and the binding signal was 8160 fluorescence intensity (a.u.).
For “CAAGGCCATACAACTACTATTCCTCACATATTCCCCAAACCGGAGTCACCTAGTGCAG”, the binding signal was 8600 fluorescence intensity (a.u.).
For “GGAAACTGTCTATCCATTTTGTCGGGTGATTTCTCTCTAGCGGAGTCACCTAGTGCAG”, the binding signal was 8230 fluorescence intensity (a.u.).
For “CTACGTACTGTTTAACTTATATATGTCATTTCATATGGTTCGGAGTCACCTAGTGCAG”, the binding signal was 9440 fluorescence intensity (a.u.).
“GCGGCAATGTCGGAGGTGTTTGTTTGGCTCGGTTTCGAAACGGAGTCACCTAGTGCAG” was tested, and the binding signal was 8230 fluorescence intensity (a.u.).
With “GGCCGCCTGCAAATTTCGTTCCGTCTGCCACGTCACTTTCCGGAGTCACCTAGTGCAG” the binding signal was 9290 fluorescence intensity (a.u.).
With “CCGCCGTCACCGTGCTCTTCTCGCTGCCGGTGGCGTACCCCGGAGTCACCTAGTGCAG” the binding signal was 8430 fluorescence intensity (a.u.).
With “TTTATTTTCACCACCCTAGGATTGACACTTCACATTTATTCGGAGTCACCTAGTGCAG” the binding signal was 8460 fluorescence intensity (a.u.).
For “CCACTTTGTCATTTTGGCCATTTTGTGCATTTTCGAAATCCGGAGTCACCTAGTGCAG”, the binding signal was 13200 fluorescence intensity (a.u.).
For “GCTAGTATATCTCTCGAGTTTGTCCCCACTCCCCAGCCATCGGAGTCACCTAGTGCAG”, the binding signal was 8150 fluorescence intensity (a.u.).
“TAGATTCGTACAACCTCATATTTTCGTTTATGTTTATGCTCGGAGTCACCTAGTGCAG” was tested, and the binding signal was 8690 fluorescence intensity (a.u.).
In the case of “CTGATAATGCTTTTTCGTCAAATTGCAAGTACATCCAACCCGGAGTCACCTAGTGCAG”, the binding signal is reported as 11500 fluorescence intensity (a.u.).
For “AACCACGTATGCGCCACGTCATCCAAAACCGCCTTCAAAACGGAGTCACCTAGTGCAG”, the binding signal was 8990 fluorescence intensity (a.u.).
“CATCTCGCCCTCGCCCTCGCCTCGCCTCGTACCATCCGACCGGAGTCACCTAGTGCAG” was tested, and the binding signal was 8970 fluorescence intensity (a.u.).
“GCCATTTGTGCGCCGTCGTCCTCGGTCCTCTCAACACCGCCGGAGTCACCTAGTGCAG” was tested, and the binding signal was 8490 fluorescence intensity (a.u.).
In the case of “CTACTTTAGCACTAGTTACTTTCTATCACTATTGTATTTTCGGAGTCACCTAGTGCAG”, the binding signal is reported as 10800 fluorescence intensity (a.u.).
“TCGCATCACCCGTCTCCCTGGTCGTACATCGGGTGGATATCGGAGTCACCTAGTGCAG” was tested, and the binding signal was 8940 fluorescence intensity (a.u.).
With “TTTTTACTGCACAACTAATGCTCGATGTCCAAATATACTTCGGAGTCACCTAGTGCAG” the binding signal was 8040 fluorescence intensity (a.u.).
“CACATCTATAAGGTAGTACTAGTATTGTTTTCTCGCTGTCCGGAGTCACCTAGTGCAG” was tested, and the binding signal was 9120 fluorescence intensity (a.u.).
In the case of “CTTTCGCGTTTTCCTTGGGTTTGACAATGGGCTACATTGCCGGAGTCACCTAGTGCAG”, the binding signal is reported as 9400 fluorescence intensity (a.u.).
For “GCACCGCTGTACCAGTTTCACCTGGGGCACTACGAACAATCGGAGTCACCTAGTGCAG”, the binding signal was 8400 fluorescence intensity (a.u.).
“AATACGAGCACCCGAACATGAACCCGGCTCATTGAACTCACGGAGTCACCTAGTGCAG” was tested, and the binding signal was 8120 fluorescence intensity (a.u.).
With “AGAGATGATGAGAGAGAAGGATATAAACGGCTTATTTTTGCGGAGTCACCTAGTGCAG” the binding signal was 8310 fluorescence intensity (a.u.).
With “AGAATCTCCTCTTATCTCTTCGCGCTTTCCCTCGCGACGCCGGAGTCACCTAGTGCAG” the binding signal was 8320 fluorescence intensity (a.u.).
For “TGCAATTCGTACTTTTTCCTACAATTAAACAGCTACATGTCGGAGTCACCTAGTGCAG”, the binding signal was 9500 fluorescence intensity (a.u.).
For “AAGTTACTTTTATTTTTTTCTAGTCAAACTACTTAGACTTCGGAGTCACCTAGTGCAG”, the binding signal was 8740 fluorescence intensity (a.u.).
In the case of “CACTTCTCTTCCCGCCTCATATGCAGCTGGCCCGCATTAACGGAGTCACCTAGTGCAG”, the binding signal is reported as 11200 fluorescence intensity (a.u.).
For “TTCACTTTGGACCACATACCACCCATCTCTCTTCTCGAGCCGGAGTCACCTAGTGCAG”, the binding signal was 8640 fluorescence intensity (a.u.).
“AACTTGATATCAATCTTGTTCTGGTTTTGGATTTGAATTTCGGAGTCACCTAGTGCAG” was tested, and the binding signal was 8230 fluorescence intensity (a.u.).
With “AACTTTTTTCAGTCCTAGAATTTCCCGAAATTTCGCTTCTCGGAGTCACCTAGTGCAG” the binding signal was 10000 fluorescence intensity (a.u.).
For “TATACCCCGTGCCGCCGACGTACGGCGCCGCCATGCCTCTCGGAGTCACCTAGTGCAG”, the binding signal was 9570 fluorescence intensity (a.u.).
